From PubChem BioAssay AID504467 (National Center for Advancing Translational Sciences (NCATS), 2011)
In all, about 330,000 compounds went through this assay and about 7,700 (2.3%) were called active. The shares of active, inactive and inconclusive entries below differ from those in the screen. Calls come from the whole dose curve; as a rule, active = well fitted inhibition curve with a large enough effect; inconclusive = small, poorly fitted or top-dose-only effect, or effect the other way; inactive = flat fitted curve, though single readings scatter. A potency beside an inconclusive call is a rough fit, not a confirmed value.

test: qHTS screen for small molecules that inhibit ELG1-dependent DNA repair in human embryonic kidney (HEK293T) cells expressing luciferase-tagged ELG1; conditions: HEK293T ELG1-luciferase reporter, luminescence, 16 h, DNA damage induced by 5-fluorouridine; activity change, negative = inhibition: at 46.1 µM (top of the series); note: nearly all actives have a fitted effect of over 55% in size
In short: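 DMSO vehicle served as the neutral condition. Each well held 2,000 cells given 5-fluorouridine plus compound; after 16 hr at 37 °C/5% CO2, ONE-Glo was added and luciferase measured 30 min later.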
% is set by controls: 0 for no effect and ±100 for the full control effect; potency is the fitted concentration of half-maximal effect.

Row | SMILES | activity change, negative = inhibition | Potency
1 | COc1ccc(NC(=O)COc2ccccc2F)cc1S(=O)(=O)N1CCCCC1 | inactive: 0% | 
2 | Cc1ccccc1CNC(=O)C1CCCN(c2cnccn2)C1 (stereo unspecified) | inactive: 2.4% | 
3 | CC(C)Oc1cccc(-c2cc(C(=O)N3CCN(S(C)(=O)=O)CC3)c3ccccc3n2)c1 |  | inconclusive: 13 µM [inhibitor, partial curve]
4 | COC(=O)C(C)n1cnc2c(nnn2-c2cccc(OC)c2)c1=O (stereo unspecified) |  | inconclusive: 20.6 µM [activator, partial curve]
5 | CC(=O)Nc1ccc(NC(=O)c2cc(-c3ccccc3)nc3ccccc23)cc1 |  | inconclusive: 16.4 µM [inhibitor, single point]
6 | C/C(=N\NC(=O)c1c(Cl)cnn1C)c1cccc(NC(=O)C(C)C)c1 |  | inconclusive: 23.1 µM [inhibitor, partial curve, poor fit]
7 | CCNC(=O)N(CC)C[C@H]1N[C@@](C)(C(=O)OC)[C@H]2C(=O)N(Cc3ccccc3)C(=O)[C@@H]12 | inactive: 18.6% | 
8 | CCCc1cnc(N2CCN(C(=O)c3ccc(F)cc3)CC2)nc1 |  | inconclusive: 14.6 µM [inhibitor, partial curve]
9 | COc1ccc(/C=C2/N=C3CCCCCN3C2=O)cc1 |  | inconclusive: 18.3 µM [activator, single point]
10 | CCOc1ccc(NC(=S)NC(=O)/C=C/c2ccc(OC)c(OC)c2)c([N+](=O)[O-])c1 |  | inconclusive: 5.62 µM [activator, single point]
11 | CC1(C)CC(=O)C=C(NCc2ccncc2)C1 |  | inconclusive: 23.1 µM [activator, partial curve, poor fit]
12 | Cc1cc(C)c2cc(C(=O)N(C)C3CCN(C)CC3)[nH]c2c1 |  | inconclusive: 6.51 µM [activator, full curve, poor fit]
13 | CC(=O)c1ccc(NC(=O)N2CCc3ccccc3C2)cc1 |  | inconclusive: 3.26 µM [activator, single point]
14 | COc1ccc(N2CCN(C(=O)CSc3nnc(NC(=O)C4CCC4)s3)CC2)cc1 |  | inconclusive: 18.3 µM [inhibitor, partial curve, poor fit]
15 | CSc1ncnc2c1cnn2-c1ccc(C)cc1C |  | inconclusive: 18.3 µM [activator, single point]
16 | O=C(OCC(=O)N1CCCC1)c1cc(Cl)ccc1Cl |  | inconclusive: 18.3 µM [activator, single point]
17 | COC(=O)C1=C(C)N(CC2CC2)C(=NCc2cc(OC)c(OC)c(OC)c2)N[C@H]1c1ccccc1 | inactive: -5.61% | 
18 | N=c1c2c(-c3ccccc3)c(-c3ccccc3)oc2ncn1CCN1CCOCC1 |  | inconclusive: 29.1 µM [inhibitor, single point]
19 | Cc1nnc2ccc(-c3ccc(NS(=O)(=O)c4ccccc4[N+](=O)[O-])cc3)nn12 |  | inconclusive: 5.17 µM [activator, partial curve]
20 | CCCc1nn(C)c(C(=O)Nc2ccc(CC)cc2)c1Cl |  | inconclusive: 29.1 µM [activator, single point]
21 | Fc1ccc(-c2cc(-c3ccccc3)nc(-n3cccn3)n2)cc1 |  | inconclusive: 29.1 µM [inhibitor, single point]
22 | O=C(Nc1cccnc1)c1sc2cccc(F)c2c1Cl |  | inconclusive: 3.26 µM [activator, single point]

Reprinted at random: four entries already listed.
Row | SMILES | activity change, negative = inhibition | Potency
6 | C/C(=N\NC(=O)c1c(Cl)cnn1C)c1cccc(NC(=O)C(C)C)c1 |  | inconclusive: 23.1 µM [inhibitor, partial curve, poor fit]
10 | CCOc1ccc(NC(=S)NC(=O)/C=C/c2ccc(OC)c(OC)c2)c([N+](=O)[O-])c1 |  | inconclusive: 5.62 µM [activator, single point]
14 | COc1ccc(N2CCN(C(=O)CSc3nnc(NC(=O)C4CCC4)s3)CC2)cc1 |  | inconclusive: 18.3 µM [inhibitor, partial curve, poor fit]
15 | CSc1ncnc2c1cnn2-c1ccc(C)cc1C |  | inconclusive: 18.3 µM [activator, single point]

Further records:

Row | SMILES | activity change, negative = inhibition | Potency
23 | Cc1ccccc1C=Nc1ccccc1C(N)=O |  | inconclusive: 4.61 µM [inhibitor, single point]
24 | CC(=O)c1c(C)[nH]c(C(=O)CSc2nnc(-c3ccccc3)n2Cc2ccc3c(c2)OCO3)c1C |  | inconclusive: 6.51 µM [inhibitor, partial curve, poor fit]
25 | CCOC(=O)c1c(NC(=O)c2ccco2)n(C2CCCCC2)c2nc3ccccc3nc12 |  | inconclusive: 23.1 µM [inhibitor, partial curve]
26 | Cc1nnc(N2C(=O)C(=O)/C(=C(/O)c3ccc4c(c3)CC(C)O4)C2c2ccccc2F)s1 (stereo unspecified) |  | inconclusive: 29.1 µM [activator, partial curve, poor fit]
27 | CC(C)c1ccc(C2c3[nH]c4ccccc4c3C[C@H]3C(=O)N(c4ccccc4C(=O)N4CCC[C@@H]4C(=O)O)C(=O)N23)cc1 (stereo partly specified) | inactive: 1.54% | 
28 | Cc1ccccc1NC(=S)NCc1ccc(Cl)cc1 | inactive: -1.99% | 
29 | COC(=O)C(Cc1ccc(O)cc1)NC(=O)c1ccc2c(c1)OCCO2 (stereo unspecified) |  | inconclusive: 18.3 µM [activator, single point]
30 | O=C(Cc1ccc(Cl)cc1Cl)OCC(=O)N1CCN(C(=O)c2ccco2)CC1 | inactive: -4.83% | 
31 | FC(F)(F)c1ccc2c(c1)C1C=CCC1C(c1ccncc1)N2 (stereo unspecified) |  | inconclusive: 18.3 µM [inhibitor, single point]
32 | CCOC(=O)c1c(C)c(C(=O)Nc2cc(F)ccc2F)c(C)n1C | inactive: -29.5% | 
33 | Cc1ccc(NC(=O)c2nc(S(=O)(=O)Cc3ccccc3)ncc2Cl)cc1 |  | inconclusive: 29.1 µM [inhibitor, single point]
34 | COc1ccc(-c2c(-c3ccc(OC)c(F)c3)c3ccccc3n2C)cc1 |  | inconclusive: 16.4 µM [activator, partial curve, poor fit]
35 | COc1ccc(O)c(CNn2c(-c3ccc(Br)cc3)nc3ccccc3c2=O)c1 |  | inconclusive: 9.2 µM [inhibitor, partial curve, poor fit]
36 | Cc1cccc(C)c1N=C1C(=O)Nc2ccccc21 |  | inconclusive: 11.6 µM [inhibitor, partial curve, poor fit]
37 | COc1ccc(OCCN2CCN(C(=O)c3ccc(OC(F)F)c(OC)c3)CC2)cc1 | inactive: -25.9% | 
38 | COCCNC(=O)c1cc2cc3ccc(OC)cc3nc2o1 |  | inconclusive: 18.3 µM [activator, partial curve]
39 | Cc1cc(/C=C2/NC(=O)N(Cc3ccccc3F)C2=O)c(C)n1C(C)C |  | inconclusive: 29.1 µM [inhibitor, single point]
40 | O=C(COc1ccc(Cl)cc1)NCc1nnc(SCC(=O)Nc2ccc(F)cc2F)o1 | inactive: 9.84% | 
41 | COCCn1c(C)cc(C2=NNC(=Nc3ccccc3F)SC2)c1C |  | inconclusive: 6.51 µM [inhibitor, single point]
42 | COc1ccc(C(=O)C2=NN(C(C)=O)CC2c2ccco2)cc1 (stereo unspecified) |  | inconclusive: 9.2 µM [activator, partial curve]
43 | CC1C(=NO)C(C)C(c2ccc(N(C)C)cc2)NC1c1ccc(N(C)C)cc1 (stereo unspecified) |  | inconclusive: 29.1 µM [inhibitor, partial curve, poor fit]
44 | COc1ccc(NC(=O)c2cc(Br)ccc2Cl)c([N+](=O)[O-])c1 | inactive: 8.29% | 

Row | SMILES | activity change, negative = inhibition | Potency
45 | CC(=O)Nc1cccc(C(=O)OCC(=O)c2ccccc2Cl)c1 | inconclusive: 261% [activator] | 
46 | O=C(Cc1cccs1)Nc1nnc(SCC(=O)N2CCCCC2)s1 | inactive: -1.44% | 
47 | O=C1c2cccc3c([N+](=O)[O-])ccc(c23)C(=O)N1c1nccs1 |  | inconclusive: 32.6 µM [inhibitor, single point]
48 | COc1cccc(CC(=O)Nc2ccc3c(c2)OC2(CCCC2)O3)c1 |  | inconclusive: 14.6 µM [activator, partial curve]
49 | CCOC(=O)/C(C#N)=C/Nc1ccccc1OC |  | inconclusive: 16.4 µM [activator, partial curve]
50 | CC(C)Cc1nc(NCCN2CCOCC2)c(C#N)c2c1COC(C)(C)C2 |  | inconclusive: 18.4 µM [inhibitor, partial curve, poor fit]
51 | CNc1nc(Nc2ccc(C(C)=O)cc2)nc(OC(C(F)(F)F)C(F)(F)F)n1 |  | inconclusive: 18.4 µM [inhibitor, single point]
52 | Cc1ccccc1OCCNc1ccc(C(F)(F)F)cc1[N+](=O)[O-] | inactive: 23.1% | 
53 | COc1cc2c(cc1OC)[C@@H](NC(=O)C(C)C)[C@H](O)C2 |  | inconclusive: 32.6 µM [activator, partial curve, poor fit]
54 | Cc1c(NCc2ccccc2O)c(=O)n(-c2ccccc2)n1C |  | inconclusive: 0.231 µM [inhibitor, full curve]
55 | Cc1ccccc1C(=O)NC(C(=O)Nc1nc2c(s1)CCCC2)C(C)C (stereo unspecified) |  | active: 20.6 µM
56 | C=CCN1CCN(C(CC(C)C)c2nnnn2CCOC)CC1 (stereo unspecified) | inactive: 10.3% | 
57 | COc1ccc(-c2nn(-c3ccccc3)cc2/C=N/NC(N)=S)cc1OC |  | active: 1.84 µM
58 | CCCNC(=O)c1ccc(N2CCC3(CC2)CC(c2cccc(Br)c2)=NO3)c([N+](=O)[O-])c1 |  | inconclusive: 16.4 µM [inhibitor, partial curve]
59 | CCOC(=O)C1CCCN(c2c(C(=O)c3ccccc3)cnc3ccccc23)C1 (stereo unspecified) |  | inconclusive: 29.1 µM [inhibitor, single point]
60 | Fc1cccc(/C=N/Nc2ccccn2)c1 |  | inconclusive: 18.3 µM [activator, partial curve]
61 | N#Cc1cccc(-c2nnc(SCc3ccccc3C#N)o2)c1 |  | inconclusive: 18.4 µM [activator, partial curve]
62 | COc1cc(OC)cc(C(=O)NCC2CCCN(Cc3ccc(SC)cc3)C2)c1 (stereo unspecified) | inactive: -10.6% | 
63 | Cc1ccc(C(=O)Oc2oc(-c3ccco3)nc2C=Nc2ccc(Cl)cc2)cc1 |  | inconclusive: 1.84 µM [activator, partial curve, poor fit]
64 | O=C(Nc1ccc(C(=O)N2CCOCC2)cc1)Nc1ccc(Cl)cc1Cl |  | inconclusive: 29.1 µM [inhibitor, single point]
65 | COc1cccc(NC(=O)COC(=O)c2ccc3ccccc3n2)c1 |  | inconclusive: 18.3 µM [activator, single point]
66 | Cc1cc(C(=O)Nc2ccc(C)c(S(=O)(=O)N3CCOCC3)c2)c2ccccc2n1 |  | inconclusive: 9.2 µM [inhibitor, partial curve, poor fit]
